Laboratory results from publication PMC4154866.
Results are given in words; binding and its absence hold for the method and conditions named. Some binding calls cover weakened binding; strength is not graded here.

T1: BIK1 (pGBKT7-BIK1) (A. thaliana) (UniProt O48814)
T1 sequence: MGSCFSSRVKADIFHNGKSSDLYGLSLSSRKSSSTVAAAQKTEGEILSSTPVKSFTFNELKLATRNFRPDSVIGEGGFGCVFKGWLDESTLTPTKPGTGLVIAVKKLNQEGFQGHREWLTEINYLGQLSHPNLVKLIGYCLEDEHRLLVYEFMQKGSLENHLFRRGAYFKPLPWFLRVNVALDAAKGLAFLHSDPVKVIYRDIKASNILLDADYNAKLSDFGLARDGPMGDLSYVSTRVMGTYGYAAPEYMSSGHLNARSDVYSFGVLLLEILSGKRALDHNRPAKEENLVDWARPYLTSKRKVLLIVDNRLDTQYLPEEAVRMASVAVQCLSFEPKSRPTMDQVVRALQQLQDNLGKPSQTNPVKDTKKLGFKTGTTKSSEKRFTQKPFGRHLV


Target: T1, BIK1 (pGBKT7-BIK1) (A. thaliana)
Assay: two-hybrid; GAL4 system (Clontech), yeast AH109; BIK1 in pGBKT7, kinase domains in pGADT7; His reporter on medium with 3 mM 3-AT and lacZ reporter

Binder	binding
PEPR1 kinase domain (pGADT7-PEPR1KD) (domain or fragment, UniProt Q9SSL9 827-1123) LNEKYTIGRGAHGIVYRASLGSGKVYAVKRLVFASHIRANQSMMREIDTIGKVRHRNLIKLEGFWLRKDDGLMLYRYMPKGSLYDVLHGVSPKENVLDWSARYNVALGVAHGLAYLHYDCHPPIVHRDIKPENILMDSDLEPHIGDFGLARLLDDSTVSTATVTGTTGYIAPENAFKTVRGRESDVYSYGVVLLELVTRKRAVDKSFPESTDIVSWVRSALSSSNNNVEDMVTTIVDPILVDELLDSSLREQVMQVTELALSCTQQDPAMRPTMRDAVKLLEDVKHLARSCSSDSVR	binds
RLK7 kinase domain (pGADT7-RLK7KD) (domain or fragment, UniProt F4I2N7 671-977) LIGRGGCGDVYRVVLGDGKEVAVKHIRCSSTQKNFSSAMPILTEREGRSKEFETEVQTLSSIRHLNVVKLYCSITSDDSSLLVYEYLPNGSLWDMLHSCKKSNLGWETRYDIALGAAKGLEYLHHGYERPVIHRDVKSSNILLDEFLKPRIADFGLAKILQASNGGPESTHVVAGTYGYIAPAEYGYASKVTEKCDVYSFGVVLMELVTGKKPIEAEFGESKDIVNWVSNNLKSKESVMEIVDKKIGEMYREDAVKMLRIAIICTARLPGLRPTMRSVVQMIEDAEPCRLMGIVISKESDVKVKEIS	no binding
